Data as given in publication PMC3769253.
Results are given in words; binding and its absence hold for the method and conditions named. Binding seen in cells or lysates may run through a third protein. Binding calls can cover weak binding; strength is not graded here. Tags and fused reporters may be left off the sequences shown.

Biological target: T1, recombinant CagI (without tag), Δ32N (H. pylori 26695) (UniProt O25273)
T1 sequence: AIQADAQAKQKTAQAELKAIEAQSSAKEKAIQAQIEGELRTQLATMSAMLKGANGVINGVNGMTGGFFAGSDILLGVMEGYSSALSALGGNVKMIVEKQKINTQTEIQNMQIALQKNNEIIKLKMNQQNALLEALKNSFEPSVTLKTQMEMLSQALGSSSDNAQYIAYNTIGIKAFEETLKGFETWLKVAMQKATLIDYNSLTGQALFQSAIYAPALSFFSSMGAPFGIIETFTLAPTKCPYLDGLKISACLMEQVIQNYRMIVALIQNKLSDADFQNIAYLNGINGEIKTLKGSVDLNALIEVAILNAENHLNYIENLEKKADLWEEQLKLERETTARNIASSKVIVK
Assay: co-IP; soluble extract of E. coli BL-21(DE3) co-expressing the two recombinant proteins; anti-CagI, anti-CagH or anti-Hp1489 antibody; Western blotting

Substance: MBP-CagH (H. pylori 26695)
- binding: binds

Substance: recombinant Hp1489 (GST-tag) (from UniProt O26022)
- binding: binds
